Measurements: paper PMC6127886
No constants are given. Whether binding was seen depends on the method and setting. Some entries that bind do so weakly or less than the wild type.

Target: epidermal growth factor-like protein 7 (EGFL7), recombinant purified (UniProt Q9UHF1)
Assay: negative-stain transmission electron microscopy; purified recombinant EGFL7 on a glow discharged carbon-coated grid, stained with uranyl formate, JEOL 1400Plus at 120 kV; class sums of 10-30 particles; both purified

binding: binds
B1: epidermal growth factor-like protein 7 (EGFL7), recombinant purified (protein, UniProt Q9UHF1 24-273)
chain: YRPGRRVCAVRAHGDPVSESFVQRVYQPFLTTCDGHRACSTYRTIYRTAYRRSPGLAPARPRYACCPGWKRTSGLPGACGAAICQPPCRNGGSCVQPGRCRCPAGWRGDTCQSDVDECSARRGGCPQRCVNTAGSYWCQCWEGHSLSADGTLCVPKGGPPRVAPNPTGVDSAMKEEVQRLQSRVDLLEEKLQLVLAPLHSLASQALEHGLPDPGSLLVHSFQQLGRIDSLSEQISFLEEQLGSCSCKKDS
